From publication PMC5414047
These are yes or no findings as the source states them, for the method shown. In cells and extracts the contact can be indirect. Some binding calls cover weakened binding; strength is not graded here.

Target: SMAD2, endogenous (human (endogenous in MDA-MB-231)), Q15796
Assay: co-IP; anti-SMAD2/3 immunoprecipitants from MDA-MB-231 cells treated with TGF-β; control, FAF1-depleted (shFAF1#1, #2) or Myc-FAF1 fl/UBX-deleted expressing cells
Settings: remark: other sources report otherwise

B1: SMAD4, endogenous, Q13485 1-552 (protein)
chain: MDNMSITNTPTSNDACLSIVHSLMCHRQGGESETFAKRAIESLVKKLKEKKDELDSLITAITTNGAHPSKCVTIQRTLDGRLQVAGRKGFPHVIYARLWRWPDLHKNELKHVKYCQYAFDLKCDSVCVNPYHYERVVSPGIDLSGLTLQSNAPSSMMVKDEYVHDFEGQPSLSTEGHSIQTIQHPPSNRASTETYSTPALLAPSESNATSTANFPNIPVASTSQPASILGGSHSEGLLQIASGPQPGQQQNGFTGQPATYHHNSTTTWTGSRTAPYTPNLPHHQNGHLQHHPPMPPHPGHYWPVHNELAFQPPISNHPAPEYWCSIAYFEMDVQVGETFKVPSSCPIVTVDGYVDPSGGDRFCLGQLSNVHRTEAIERARLHIGKGVQLECKGEGDVWVRCLSDHAVFVQSYYLDREAGRAPGDAVHKIYPSAYIKVFDLRQCHRQMQQQAATAQAAAAAQAAAVAGNIPGPGSVGGIAPAISLSAAAGIGVDDLRRLCILRMSFVKGWGPDYPRQSIKETPCWIEIHLHRALQLLDEVLHTMPIADPQPLD
binding: binds
